Reference: PubChem BioAssay AID1671190 (National Center for Advancing Translational Sciences (NCATS), 2021)
Screen size: about 580,000 compounds; about 6,100 (1.1%) were called active. This list was built around the results that the source calls inconclusive (neither active nor inactive); the mix of calls is not that of the screen. Calls come from the whole dose curve; as a rule, active = well fitted inhibition curve with a large enough effect; inconclusive = small, poorly fitted or top-dose-only effect, or another doubt; inactive = no such curve, though single readings can be large or run the other way. Potencies beside an inconclusive call are fits to weak or partial responses and may not hold up.

Amino acid sequences for entries named in this document (tags omitted). A change or cut given only in a name is not applied to a line headed by its entry.
UniProt P18054: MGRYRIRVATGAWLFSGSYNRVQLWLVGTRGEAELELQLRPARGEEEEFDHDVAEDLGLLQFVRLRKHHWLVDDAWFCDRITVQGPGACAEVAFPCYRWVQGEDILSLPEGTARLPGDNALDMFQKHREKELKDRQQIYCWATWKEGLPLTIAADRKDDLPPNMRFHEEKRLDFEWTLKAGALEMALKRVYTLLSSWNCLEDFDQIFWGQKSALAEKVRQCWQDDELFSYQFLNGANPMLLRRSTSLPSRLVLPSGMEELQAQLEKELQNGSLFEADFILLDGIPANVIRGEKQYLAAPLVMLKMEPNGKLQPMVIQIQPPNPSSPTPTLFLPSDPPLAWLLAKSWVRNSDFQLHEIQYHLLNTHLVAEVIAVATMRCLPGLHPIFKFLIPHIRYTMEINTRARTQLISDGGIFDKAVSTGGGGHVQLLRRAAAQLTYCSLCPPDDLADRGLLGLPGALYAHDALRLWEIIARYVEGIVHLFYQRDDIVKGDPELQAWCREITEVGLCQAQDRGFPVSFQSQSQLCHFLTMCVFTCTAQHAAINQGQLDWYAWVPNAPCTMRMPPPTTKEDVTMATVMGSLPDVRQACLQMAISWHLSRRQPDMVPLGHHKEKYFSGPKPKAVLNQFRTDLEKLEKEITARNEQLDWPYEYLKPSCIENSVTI

Each molecule was assayed against Polyunsaturated fatty acid lipoxygenase ALOX12 (Homo sapiens) (UniProt P18054) (assay: Primary qHTS assay for inhibitors of human arachidonate 12S-lipoxygenase (ALOX12): Round 2). Conditions: purified 12hLO, xylenol orange hydroperoxide absorbance; series mostly up to 108 µM.
Outline: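 Hydroperoxide product was detected by ferrous iron/xylenol orange as the 573 to 405 nm absorbance ratio. Arachidonic acid at 40 uM (final) was turned over for 30 min at room temperature by 150 nM human 12hLO, pH 7.0 Hepes buffer, after 15 min compound preincubation.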
Potency is the fitted concentration of half-maximal effect.

Compound	Potency
COc1ccc(NCC(=O)N/N=C2\CCc3ccccc32)cc1	inactive
CCN1C(=O)/C(=C\c2cn(-c3ccccc3)nc2-c2cccnc2)SC1=S	inactive
Cc1cccc(C)c1NC(=S)N(CCCN1CCN(C)CC1)Cc1cccs1	inconclusive: 2.51 µM [inhibitor, full curve, poor fit]
COc1ccc(CNC(=O)c2cnn(-c3ccc(C)cc3)c2-n2cccc2)cc1OC	inactive
CS(=O)(=O)c1ccc2c(c1)SC1=NC(=O)/C(=C/c3ccco3)C(=N)N12	inconclusive: 5.01 µM [inhibitor, full curve, poor fit]
COc1ccc(NC(=O)CSc2ncnc3ccccc23)c(OC)c1	inactive
CC1=C(C(=O)OC(C)C)C(C)C(C(=O)OC(C)C)=C(C)N1	inactive
c1ccc(-c2ccc(CN3CCSCC3)cc2)cc1	inconclusive: 2.24 µM [inhibitor, full curve]
Fc1ccccc1CN1CCNc2cnc(Nc3ccccc3)cc2C1	inconclusive: 35.5 µM [inhibitor, full curve]
Cc1ccc(SC2=C[C@@]3(O)CC[C@@H](O)[C@@](Sc4ccc(C)cc4)(C2=O)[C@H]3O)cc1	inconclusive: 35.5 µM [inhibitor, partial curve, poor fit]
CC1(c2ccc(F)cc2)OC(=O)c2c1ccc1ccccc21 (stereo not given)	inactive
Cc1cc(C(=O)N/N=C/c2cc([N+](=O)[O-])ccc2O)c2ccccc2n1	inconclusive: 1.78 µM [inhibitor, full curve, poor fit]
CC(C)c1ccc(C(=O)CN2C(=O)NC3(CCc4ccccc43)C2=O)cc1 (stereo not given)	inactive
COc1ccc(C(=O)Oc2cc(-c3ccc4c(c3)OCO4)cc(=O)c3c(C)oc(C)c23)cc1	inconclusive: 5.01 µM [inhibitor, full curve]
O=C(c1ccc(N2CC3CC(C2)[C@H]2CCCC(=O)N2C3)nc1)N1CC=C(c2ccccc2)CC1 (stereo not given in full)	inactive
CC(Sc1nc(Cl)nc2nc[nH]c12)C(=O)NCCc1ccc(O)cc1 (stereo not given)	inactive
Cc1cc2cc(C#N)c(SCC(=O)Nc3nonc3C)nc2cc1C	inactive
Cc1ccc(Cn2ncc3c(NCCCN(C)C)ncnc32)cc1	inconclusive: 28.2 µM [inhibitor, partial curve, poor fit]
COc1ccc(S(=O)(=O)N2CCN(CC(=O)Nc3ccc(Cl)c(C(F)(F)F)c3)CC2)cc1	inconclusive: 50.1 µM [inhibitor, partial curve, poor fit]
CCc1ccc2oc(C(=O)Nc3cccc4cccnc34)c(C)c2c1	inactive
CCOC(=O)C(NC(=O)c1cccc(Cl)c1)(Nc1sc2c(c1C(N)=O)CCC2)C(F)(F)F (stereo not given)	inconclusive: 44.7 µM [inhibitor, partial curve, poor fit]
COc1ccccc1N1CCN([C@@H]2[C@H](O)[C@H](CO)O[C@@H]2CNS(=O)(=O)c2ccc(Cl)cc2)CC1	inconclusive: 8.91 µM [inhibitor, full curve, poor fit]

Compound	Potency
COc1ccc(CN2CCNC(=O)C2CC(=O)N(C)CC2CCOCC2)c(F)c1 (stereo not given)	inconclusive: 35.5 µM [inhibitor, partial curve, poor fit]
COCCN1C(=O)N[C@@H](c2cccc(F)c2)C(C(C)=O)=C1C	inactive
COc1ccc(CC(=O)OCC(=O)c2ccc(OC(=O)c3ccco3)cc2)cc1	inconclusive: 141 µM [inhibitor, single point]
O=c1[nH]c(=S)[nH]nc1Cc1ccc(Cl)c(Cl)c1	active: 6.31 µM
Cc1cccc(C(=O)OCC(=O)NC(=O)c2ccccc2)c1O	inactive
Cc1cc(C(=O)N2CCC(n3c(=O)[nH]c4ccccc43)CC2)ccc1Cl	inconclusive: 14.1 µM [inhibitor, full curve]
CCOc1ccc(NC(=O)CN2C(=O)C3CCCN3C2=O)cc1 (stereo not given)	inactive
COc1ccccc1NC(=S)N(Cc1ccco1)Cc1cc2ccc(C)c(C)c2[nH]c1=O	inconclusive: 6.31 µM [inhibitor, full curve]
Cc1cccc(C)c1NC(=O)C1c2ccccc2OCC(=O)N1Cc1ccc2c(c1)OCO2 (stereo not given)	inconclusive: 126 µM [inhibitor, single point]
CC(C)C(N)c1csc(Nc2ccc(C(F)(F)F)cn2)n1 (stereo not given)	inactive
Cc1[nH]n(-c2ccccc2)c(=S)c1C=Nc1ccc([N+](=O)[O-])cc1	inconclusive: 3.98 µM [inhibitor, full curve, poor fit]
Cc1ccc(-c2onc(C)c2C)cc1S(=O)(=O)Nc1ccc(Cl)cn1	inconclusive: 14.1 µM [inhibitor, full curve, poor fit]
O=C(NC(=S)NNC(=O)c1ccccc1[N+](=O)[O-])c1ccccc1	inconclusive: 39.8 µM [inhibitor, partial curve, poor fit]
CC(=O)N1CCN(c2nc(-c3c(C)noc3C)cc3cc(C(C)C)oc23)CC1	inconclusive: 50.1 µM [inhibitor, partial curve, poor fit]
O=[N+]([O-])c1cccc(-c2n[nH]c(=S)n2-c2ccc(Br)cc2)c1	inconclusive: 39.8 µM [inhibitor, partial curve]
O=C(NCc1ccco1)c1ccc2c(c1)CC(=O)N2Cc1cccc(F)c1	inconclusive: 31.6 µM [inhibitor, partial curve, poor fit]
CCc1ccccc1NC(=O)CN1CCN(C(=O)c2oc3ccccc3c2C)CC1	inactive
COc1ccc(C(=O)/C=C/C(=O)N(CC(=O)NC2CCCCC2)Cc2ccccc2)c(O)c1	inactive
CCC(C)NS(=O)(=O)c1ccc(NC(=O)CNCc2cccs2)cc1 (stereo not given)	inconclusive: 0.316 µM [inhibitor, full curve, poor fit]
COc1cc(/C=N/NC(=S)Nc2cccc(S(=O)(=O)N(C)C)c2)ccc1O	inconclusive: 44.7 µM [inhibitor, partial curve, poor fit]
COc1cc2c(cc1OC)-c1cc(Nc3ccc(N(C)C)cc3)nc(=O)n1CC2	inconclusive: 126 µM [inhibitor, single point]
O=c1n(-c2ccc([N+](=O)[O-])cc2)nc2n1CCN(Cc1cccc3ccccc13)C2	inconclusive: 50.1 µM [inhibitor, single point]

Arranged by molar mass (descending): part of the list above
Compound	Potency
COc1cc(/C=N/NC(=S)Nc2cccc(S(=O)(=O)N(C)C)c2)ccc1O	inconclusive: 44.7 µM [inhibitor, partial curve, poor fit]
CCc1ccccc1NC(=O)CN1CCN(C(=O)c2oc3ccccc3c2C)CC1	inactive
O=c1n(-c2ccc([N+](=O)[O-])cc2)nc2n1CCN(Cc1cccc3ccccc13)C2	inconclusive: 50.1 µM [inhibitor, single point]
CC(=O)N1CCN(c2nc(-c3c(C)noc3C)cc3cc(C(C)C)oc23)CC1	inconclusive: 50.1 µM [inhibitor, partial curve, poor fit]
CCOc1ccc(NC(=O)CN2C(=O)C3CCCN3C2=O)cc1 (stereo not given)	inactive

(next part)

Compound	Potency
CC(COc1cccc(C#N)c1)CN1CCC(C(O)(c2ccccc2)c2ccccc2)CC1 (stereo not given)	inconclusive: 141 µM [inhibitor, single point]
COC(=O)C1=C(C)NC(=S)NC1c1ccc(Br)cc1 (stereo not given)	inconclusive: 50.1 µM [inhibitor, partial curve, poor fit]
CCc1ccc(-c2nc(SC(C(=O)N(CC)CC)c3ccccc3)n[nH]2)cc1 (stereo not given)	inconclusive: 56.2 µM [inhibitor, partial curve, poor fit]
O=C(N1CCN(Cc2ccccc2)CC(O)C1)C1(c2ccccc2F)CC1 (stereo not given)	inactive
C[C@]12c3[nH]c4cc(-c5ccco5)ccc4c3CCN1C(=O)[C@@H](CC(=O)NCC13CC4CC(CC(C4)C1)C3)C[C@@H]2C(=O)N1CCOCC1	inconclusive: 50.1 µM [inhibitor, single point]
CN1CC(=O)N(C2CCNCC2)Cc2c(NCCCc3ccccc3)ncnc21	inconclusive: 3.98 µM [inhibitor, full curve, poor fit]
O=[N+]([O-])c1cc(NS(=O)(=O)c2ccc(Cl)nc2)ccc1Cl	inconclusive: 31.6 µM [inhibitor, partial curve, poor fit]
O=S(=O)(c1cccc2nsnc12)N1CCCC1c1ccc(Cl)cc1 (stereo not given)	inactive
COC(=O)C1=C(\O)CCCC/C=C\1C(=O)O	inconclusive: 10 µM [inhibitor, partial curve, poor fit]
Cc1cc2ccccn2c1C(=S)NC(=O)c1ccccc1	active: 22.4 µM
CCN1CCN(c2cc3nc(C)n(Cc4ccccc4)c(=O)c3cc2NC(=O)c2ccccc2F)CC1	inactive
Cc1cccc(NS(=O)(=O)c2cc(NC(=O)Cc3n[nH]c(=O)c4ccccc34)ccc2C)c1	inconclusive: 50.1 µM [inhibitor, full curve, poor fit]
Oc1ccccc1N=Nc1ccccc1O	inconclusive: 0.447 µM [inhibitor, full curve, poor fit]
Cc1ccc(NC(=O)N[C@@H]2C=C(C(=O)N[C@@H](Cc3ccc(O)cc3)C(N)=O)C[C@@H](O)[C@@H]2O)cc1	inconclusive: 39.8 µM [inhibitor, full curve, poor fit]
COc1ccc(CNC(=O)CSc2ncc(S(=O)(=O)c3ccc(Br)cc3)c(=O)[nH]2)cc1	inactive
Cc1cccc(N(Cc2ccccc2)C(=O)C2CCN(C(=O)c3ccccc3C)CC2)c1	inactive
CN1C(=O)c2ccccc2C(C(=O)NCc2ccco2)C1c1c[nH]c2ccccc12 (stereo not given)	inconclusive: 31.6 µM [inhibitor, single point]
COC(=O)Nc1nc2ccc(Sc3ccccc3)cc2[nH]1	inconclusive: 39.8 µM [inhibitor, single point]
CC1CCc2c(sc(/N=C/c3ccc(C(C)(C)C)cc3)c2C#N)C1 (stereo not given)	inconclusive: 39.8 µM [inhibitor, partial curve, poor fit]
Cc1cc(OC(=O)c2cc(Cl)ccc2Cl)c([N+](=O)[O-])c(=O)[nH]1	inconclusive: 89.1 µM [inhibitor, single point]
COCCCNC(c1ccccc1)c1ccncc1 (stereo not given)	inconclusive: 44.7 µM [inhibitor, partial curve, poor fit]
